Here are results for 15 molecules from the odorant receptor screen of Mainland et al. (2015).

Where “and” joins values, the source holds several entries; their conditions need not be identical. Identical values can stand only once. The list shows a part of the results. Each value is one well over the wells without odorant, computed here; the data are noisy.

Among the test systems are OR6K2 clone 1041; OR6K3 clone 1485; OR6K6 clone 1348; OR6K6 clone 1392; OR6M1 clone 1182; OR6N2 clone 1027; OR6P1 clone 1034.
Common to all, as to experiment: odorant receptor activation (CRE luciferase / Renilla) (fold of no-odor wells); higher = more activation
Holding throughout (settings): 100 µM

Test [1] relates to OR6J1 R121H/T124A/R226H/P250S/L274S/V279L clone 1714.
The subject of test [2] is OR6K3 P228S/P248L clone 1045.
Test [3] has as its system OR6N1 I194T/F245L/Q261R/R293H clone 1038.

For `CCC1(O)C2(C)CCC(C2)C1(C)C` (configuration not stated) [2-ethylfenchol], the odorant receptor activation came out at 0.839 in test [1]; 2.84 with OR6K2 clone 1041; 2.83 in [2]; 1.22 with OR6K3 clone 1485; 0.838 in the test on OR6K6 clone 1348; 1.14 in the test with OR6K6 clone 1392. Besides, the odorant receptor activation was 0.818 in the test on OR6M1 clone 1182, 3.58 in test [3], 3.46 in the test with OR6N2 clone 1027 and 3.08 with OR6P1 clone 1034.

As for `C=C(C)C1CCC2=CC(=O)CC(C)C2(C)C1` (configuration not stated) [amyl laurate], in [1], the odorant receptor activation was 1.77.

In the case of `c1ccc(Oc2ccccc2)cc1` [diphenyl ether], the odorant receptor activation turned out to be 0.632 in test [1]; 1.28 with OR6K2 clone 1041; 0.943 in [2]; 1.06 with OR6K3 clone 1485; 1.11 in the test with OR6K6 clone 1348; 0.948 in the test with OR6K6 clone 1392. Also, the odorant receptor activation in the test on OR6M1 clone 1182 was found to be 0.714; in [3], 0.862; in the test with OR6N2 clone 1027, 0.912; in the test with OR6P1 clone 1034 it was 0.864.

As for `CC(=O)OC1CC2CCC1(C)C2(C)C` (configuration not stated) [isobornyl acetate], the odorant receptor activation in [1] is 2.01; with OR6K2 clone 1041, 1.44; in test [2] it was 1.35; in the test on OR6K3 clone 1485, 1.19 and 1.13; in the test with OR6K6 clone 1348 it was 1.19 and 0.758; in the test on OR6K6 clone 1392, 0.874. Moreover, the odorant receptor activation in the test with OR6M1 clone 1182 was 0.987; in test [3] it was 0.599; in the test on OR6N2 clone 1027 it was 1.05; in the test with OR6P1 clone 1034, 0.653.

Turning to `CC(=O)OCC=C(C)CCC=C(C)C` [geranyl acetate], the odorant receptor activation was 1.28 in test [1]; 1.59 with OR6K2 clone 1041; 1.8 in test [2]; 1.56 and 1.52 in the test on OR6K3 clone 1485; 0.799 and 0.771 with OR6K6 clone 1348; 1.12 in the test on OR6K6 clone 1392. Moreover, the odorant receptor activation in the test with OR6M1 clone 1182 was 1.16; in [3] it was 1.48; in the test on OR6N2 clone 1027, 1.83; in the test on OR6P1 clone 1034, 1.24.

In the case of `CC(=O)C(C)=O` [diacetyl], the odorant receptor activation in [1] worked out at 0.818; in the test with OR6K2 clone 1041, 1.49; in test [2], 1.14; in the test on OR6K3 clone 1485, 1.52; in the test with OR6K6 clone 1348, 1.24; in the test with OR6K6 clone 1392 it was 1. For the same molecule, the odorant receptor activation was found to be 0.875 in the test with OR6M1 clone 1182, 0.849 in test [3], 1.28 with OR6N2 clone 1027 and 1.09 in the test on OR6P1 clone 1034.

With `CC(C)=CCCC(C)=CC=O` [citral], the odorant receptor activation was 1.1 in test [1]; 1.29 with OR6K2 clone 1041; 1.27 in test [2]; 1.01 in the test on OR6K3 clone 1485; 0.979 with OR6K6 clone 1348; 0.212 with OR6K6 clone 1392. For the same molecule, the odorant receptor activation was 1.01 in the test on OR6M1 clone 1182, 1.08 in test [3], 1.01 in the test on OR6N2 clone 1027 and 1.26 in the test on OR6P1 clone 1034.

As to `CC(C)(O)CCCC1=CCC(C=O)CC1` (configuration not stated) [lyral], the odorant receptor activation in [1] came to 1.06.

Consider `C=CCc1ccc(OC(C)=O)c(OC)c1` [eugenol acetate], for which the odorant receptor activation in test [1] was 1.74; in the test on OR6K2 clone 1041 it was 2.04; in test [2], 1.8; in the test on OR6K3 clone 1485 it was 1.93; in the test on OR6K6 clone 1348 it was 1.3; in the test with OR6K6 clone 1392, 1.35. Also, the odorant receptor activation was 1.46 in the test on OR6M1 clone 1182, 1.43 in [3], 1.56 in the test on OR6N2 clone 1027 and 1.64 in the test on OR6P1 clone 1034.

Take `CC(C)CC(=O)O` [isovaleric acid]: the odorant receptor activation was 1.93 in test [1]; 1 in the test with OR6K2 clone 1041; 1.43 in test [2]; 0.819 in the test on OR6K3 clone 1485; 0.958 with OR6K6 clone 1348; 0.61 in the test with OR6K6 clone 1392. In addition, the odorant receptor activation in the test on OR6M1 clone 1182 turned out to be 1.23; in [3], 1.14; in the test on OR6N2 clone 1027, 1.3; in the test with OR6P1 clone 1034, 1.3.

On to `C=CCc1ccc(O)c(OC)c1` [eugenol], for which the odorant receptor activation is 0.891 in test [1]; 1.31 and 1.81 in the test with OR6K2 clone 1041; 0.933 and 1.48 in [2]; 1.37 and 1.04 and 1.43 in the test with OR6K3 clone 1485; 1.69 and 1.05 and 1.08 in the test on OR6K6 clone 1348; 1.33 and 1.25 in the test with OR6K6 clone 1392. In addition, the odorant receptor activation in the test on OR6M1 clone 1182 is 1.78 and 1.23; in [3] it was 1.3 and 1.11; in the test with OR6N2 clone 1027, 1.72 and 1.36; in the test on OR6P1 clone 1034, 1.83 and 1.39.

With `C=C(C)C1CC=C(C)C(=O)C1` (configuration not stated) [r-carvone], the odorant receptor activation in test [1] is 0.573; in the test with OR6K2 clone 1041 it was 1.31; in test [2], 0.978; in the test with OR6K3 clone 1485 it was 1.04; in the test on OR6K6 clone 1348 it was 0.709; in the test on OR6K6 clone 1392, 0.942. The odorant receptor activation in the test on OR6M1 clone 1182 was 0.737; in test [3] it was 0.941; with OR6N2 clone 1027, 1.11; in the test with OR6P1 clone 1034 it was 0.984.

In the case of `COC(=O)c1ccccc1O` [methyl salicylate], the odorant receptor activation worked out at 1.4 in test [1]; 1.25 in the test on OR6K2 clone 1041; 1.12 in [2]; 1.03 in the test with OR6K3 clone 1485; 1.05 with OR6K6 clone 1348; 0.907 in the test on OR6K6 clone 1392. The odorant receptor activation came to 0.985 in the test with OR6M1 clone 1182, 1.18 in test [3], 1.04 in the test with OR6N2 clone 1027 and 1 in the test on OR6P1 clone 1034.

Regarding `CCCCCCCC=O` [octyl aldehyde], the odorant receptor activation in test [1] came to 0.92; with OR6K2 clone 1041, 1.23; in test [2], 1.36; in the test with OR6K3 clone 1485, 1.21; in the test on OR6K6 clone 1348, 1.14; with OR6K6 clone 1392, 0.678. The odorant receptor activation in the test with OR6M1 clone 1182 worked out at 1.13; in test [3] it was 1.08; with OR6N2 clone 1027, 1.2; with OR6P1 clone 1034, 1.24.

Take `CC1CCC(C(C)C)C(O)C1` (single isomer, unassigned; (+)) [(+)-menthol]: the odorant receptor activation in test [1] was determined as 0.93; in the test on OR6K2 clone 1041, 3.4; in test [2] it was 2.41; in the test on OR6K3 clone 1485 it was 0.969; with OR6K6 clone 1348 it was 0.758; in the test on OR6K6 clone 1392, 1.12. Further, the odorant receptor activation in the test on OR6M1 clone 1182 was 1.08; in [3], 3.41; with OR6N2 clone 1027, 3.29; in the test on OR6P1 clone 1034, 2.91.
